Record: PubChem BioAssay AID602196 (INSERM, 2012)

- Screen: 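Modifiers of cisplatin sensitivity in A549 cells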
- System: human A549 lung cancer cells
- Reagent: siRNA pair against human genes
- Timing: 48 h transfection before cisplatin; time from cisplatin to read-out not stated
- Challenge: cisplatin at a dose killing half of control-siRNA cells; exact dose and duration not given
- Read-out: 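Cisplatin cell death as a shift from the 50% death seen with control siRNA; siRNAs toxic or growth-blocking alone scored 0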
- Reading the numbers: two-siRNA summed score (-2 to +2): higher = both siRNAs protect from cisplatin killing; -2 means both sensitise; mean protection from cisplatin (shift in death) and protection from cisplatin (shift in death), siRNA C and protection from cisplatin (shift in death), siRNA D: higher = protection from cisplatin killing
- Call rule: 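Each siRNA scores 0 if harmful alone by LDH or WST-1, otherwise +1 if it reduces and -1 if it increases cisplatin killing; a gene is active when both siRNAs agree (sum +2 or -2)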
- Calls: active = both siRNAs shift cisplatin killing the same way; inactive = no consistent shift, or siRNA harmful alone
In all, the deposit lists about 23,000 reagents; this is a random part of them. Over the whole deposit, 455 (2%) were called active. 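Active includes both protection and sensitisation; some change values fall well beyond the stated -50 to +50 range.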 Not stated in the record: the amount of reagent.

no.	gene knocked down	two-siRNA summed score (-2 to +2)	mean protection from cisplatin (shift in death) (%)	protection from cisplatin (shift in death), siRNA C (%)	protection from cisplatin (shift in death), siRNA D (%)	Outcome
1	THAP10	0	-0.2	-3	2.6	inactive
2	OR51B2	-1	-7.1	2.3	-16.5	inactive
3	MED17	-1	-15.6	-8.6	-22.6	inactive
4	LOC440114	0	24	9.3	38.7	inactive
5	ASF1A	0	11	6.2	15.7	inactive
6	LOC440613	0	9.6	12.2	7	inactive
7	UPRT	2	21.6	22.3	20.9	active
8	LOC256283	0	9.2	11.7	6.8	inactive
9	OR2L2	0	9.5	11.2	7.9	inactive

A run of entries taken from the entries so far, for reference:
no.	gene knocked down	two-siRNA summed score (-2 to +2)	mean protection from cisplatin (shift in death) (%)	protection from cisplatin (shift in death), siRNA C (%)	protection from cisplatin (shift in death), siRNA D (%)	Outcome
1	THAP10	0	-0.2	-3	2.6	inactive
2	OR51B2	-1	-7.1	2.3	-16.5	inactive
3	MED17	-1	-15.6	-8.6	-22.6	inactive

Further reagents follow:
no.	gene knocked down	two-siRNA summed score (-2 to +2)	mean protection from cisplatin (shift in death) (%)	protection from cisplatin (shift in death), siRNA C (%)	protection from cisplatin (shift in death), siRNA D (%)	Outcome
10	TM6SF2	0	10	2.4	17.5	inactive
11	POMZP3	0	-8.6	-4.5	-12.7	inactive
12	METTL26	0	4.3	15.7	-7.1	inactive
13	MRPS12	0	1.8	-0.5	4.1	inactive
14	MDH1	0	2.7	20.5	-15	inactive
15	RADIL	1	10	27.2	-7.2	inactive
16	LOC388787	0	-0.5	-5	4	inactive
17	ZNF57	0	4	9.6	-1.6	inactive
18	CPSF2	0	1.2	12.1	-9.8	inactive
19	REL	-1	-7.5	-20.3	5.4	inactive
20	RCAN3	0	5	18.6	-8.6	inactive
21	STBD1	0	-1.1	9.7	-12	inactive
22	HHLA2	0	10.5	8.9	12.1	inactive
23	PRKX	-1	-5.9	0	-11.8	inactive
